From US9555036B2, “Pyrazolopyrimidine compounds” (GlaxoSmithKline LLC, priority 2012, dated 2017)
Counter-ions that a name gives are not always drawn. Some of these results come from one statement about several compounds together.

Test system: TNF-α
Experiment: Induction of TNF-α using fresh human whole blood (WB)
Type: cell-based
Conditions: three donors, overnight incubation, cytokine as % of 2 μM resiquimod control
Experimental: Assay for the Induction of Interferon-α and TNF-α Using Fresh Human Whole Blood (WB) Compound Preparation
Compounds were prepared at 100× required concentration in DMSO in flat-bottom microtitre plates at a volume of 1.5 μL. Columns 1-10 contained a 1 in 4 serial dilution of the test compound. Included on each plate was a serial dilution of the TLR7/8 agonist resiquimod as a standard and Column 11 contained 1.5 μl of 200 μM resiquimod (giving a 2 μM final concentration, used to define the approximate maximal response to resiquimod). Each compound was assayed in duplicate for each donor.
Incubation and Assays for Interferon-α and TNF-α
Blood samples from three human donors were collected into sodium heparin (10 U/ml). 150 μl of whole Blood was dispensed into Col 1 to 11 of assay plates containing 1.5 μl of test compound or standard in DMSO. Plates were placed in an incubator overnight (37° C., 95% air, 5% CO2). Following the overnight incubation, plates were removed from the incubator & mixed on an orbital shaker for approximately 1 minute. 100 μl of 0.9% saline was added to each well and the plates mixed again on an orbital shaker. Plates were then centrifuged (2500 rpm, 10 mins), after which a sample of plasma was removed using a Biomek FX and assayed for both IFN-α and TNF-α using the MSD (Mesoscale Discovery) electrochemiluminescence assay platform. The IFN-α assay was carried out similarly to that described above. The TNF-α assay was carried out as per kit instructions (Cat No K111BHB).
Cytokine released was expressed as a percentage of the 2 μM resiquimod control (column 11). This percentage was plotted against compound concentration and the pEC50 for the response determined by non-linear least squares curve fitting. For the IFN-α responses, generally a 4 parameter logistic model was selected. For the TNF responses where a clear maximum response was obtained (i.e. a well defined plateau in the response was observed) then a 4 parameter model was generally used. If the upper asymptote of the curve wasn't well defined then the curve fitting was generally constrained to a maximal response of 100% (i.e. to the response to 2 μM resiquimod) or to the response of the highest concentration tested if this was greater than the resiquimod response. Some curves were bell shaped for one or both cytokines and the cytokine data on the down slope of the bell shaped response (i.e. concentrations above those giving the maximal response) were generally excluded from the fit, usually with the exception of the concentration immediately above the peak response. Curve fitting thus concentrated on the up slope of the dose response curve.

| Structure (SMILES) | mean pEC50 for TNF-α | other results |
| --- | --- | --- |
| CCCCc1nc(N)c2[nH]nc(CCCCCCN3CCCC3)c2n1 [Example 19, 5-Butyl-3-(6-(pyrrolidin-1-yl)hexyl)-1H-pyrazolo[4,3-d]pyrimidin-7-amine maleate] | – | mean pEC50 for TNF-α (maleate): ≥ 5.4 |
| CCCCc1nc(N)c2[nH]nc(CCCCCCN3CCCC3)c2n1 [Example 20, 5-Butyl-3-(6-(pyrrolidin-1-yl)hexyl)-1H-pyrazolo[4,3-d]pyrimidin-7-amine hemimaleate] | ≥ 5.4 | – |
| CCCCc1nc(N)c2[nH]nc(CCCCCCN3CCCC3)c2n1 [Example 23, 5-Butyl-3-(6-(pyrrolidin-1-yl)hexyl)-1H-pyrazolo[4,3-d]pyrimidin-7-amine methanesulfonate] | – | mean pEC50 for TNF-α (methanesulfonate): ≥ 5.4 |
| CCCCc1nc(N)c2[nH]nc(CCCCCCN3CCCC3)c2n1.Cl [Example 24, 5-Butyl-3-(6-(pyrrolidin-1-yl)hexyl)-1H-pyrazolo[4,3-d]pyrimidin-7-amine hydrochloride] | ≥ 5.4 | – |
